Measured values reported in PubChem BioAssay AID1688 (National Center for Advancing Translational Sciences (NCATS), 2009).
Where “and” joins values, the source holds several entries; their conditions need not be identical. Equal entries are not always repeated. In all, about 220,000 compounds went through this assay and about 2,400 (1.1%) were called active. This list was built around the results that the source calls inconclusive (neither active nor inactive); the mix of calls is not that of the screen. The call rests on the fitted dose curve; in most records, active means well fitted inhibition curve with a large enough effect; inconclusive means small, poorly fitted or top-dose-only effect, or effect the other way; inactive means no such curve, though single readings can be large or run the other way. A potency beside an inconclusive call is a rough fit, not a confirmed value. Some compounds were tested as several samples or in several runs, with calls that do not always agree.

Test: qHTS Multiplex Assay to Identify Dual Action Probes in a Cell Model of Huntington: Aggregate Formation (GFP); further: nearly all actives have a fitted effect of over 60% in size
Details: PC12 HttQ103-GFP aggregates, Acumen cytometry, 40 h; activity change, negative = inhibition: at 46.1 µM (top of the series) unless noted
Procedure, shortened: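 Inducible Q103 Huntingtin exon 1–GFP PC12 line, 1500 cells/well in phenol red free DMEM with 5% equine and 5% calf serum. Tebufenozide 100 nM induced expression; compounds titrated; aggregates quantified by cytometry.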
On the % scale 0 is the no-effect control and ±100 the full control effect; potency means the concentration at half of the fitted maximal effect.

Compound | activity change, negative = inhibition | Potency
O=C(c1ccc2ccccc2n1)N1CCN(c2ccccc2O)CC1 | inactive: 7.87% | 
CS(=O)c1nc(-c2ccc(Br)cc2)cc(-c2ccccc2)c1C#N (stereo not given) |  | inconclusive: 28.2 µM [inhibitor, single point]
CCc1ccc2oc(-c3cc(N=Cc4cccc(OC)c4O)ccc3O)nc2c1 |  | inconclusive: 3.16 µM [activator, partial curve]
Cc1ccc(S(=O)(=O)Nc2ccccc2CNc2c(C)n(C)n(-c3ccccc3)c2=O)cc1 |  | inconclusive: 11.2 µM [inhibitor, single point]
c1ccc(CSCCc2ccncc2)cc1 |  | inconclusive: 35.5 µM [inhibitor, single point]
CCOC(=O)/C(=C\c1ccccc1)NC(=O)c1ccccc1 | inactive: 11.2% [at 9.22 µM] | 
CCN(CC)c1ccc(NC(=O)C2CC(=O)N(Cc3ccccc3)C2)cc1 (stereo not given) |  | inconclusive: 10 µM [inhibitor, single point]
Cc1nc2cc(NC(=O)NCCC3=CCCCC3)ccc2o1 |  | inconclusive: 35.5 µM [inhibitor, partial curve]
CCN(CC)c1nc(-c2ccccc2)ncc1S(=O)(=O)c1ccc(C)cc1 | inactive: -2.76% [at 9.22 µM] | 
Cc1cc(C)c2c(c1)C1C=CCC1C(c1ccc(S(=O)(=O)N3CCOCC3)cc1)N2 (stereo not given) |  | inconclusive: 35.5 µM [activator, single point]
COc1ccc(C(=O)c2ccccc2)c(O)c1 |  | inactive and active: 11.2 µM
c1ccc(COC2CCCN(Cc3nc(Cc4ccccc4)no3)C2)cc1 (stereo not given) | inactive: -0.276% [at 9.22 µM] | 
O=C(COC(=O)CSc1nnc(-c2ccc(Cl)cc2)o1)NCc1ccc2c(c1)OCO2 |  | inconclusive: 0.562 µM [inhibitor, full curve, poor fit]
COc1cccc(/C=N/Nc2ncnc3scc(-c4ccccc4)c23)c1OC |  | inconclusive: 10 µM [inhibitor, partial curve]
Cc1ccc(C(=O)Oc2oc(-c3ccccc3)nc2C=Nc2ccc(N(C)C)cc2)cc1 | inactive: 10.2% | 
CO/N=C/NC(=O)Cc1cn(-c2ncc(C(F)(F)F)cc2Cl)c2ccccc12 |  | inconclusive: 15.8 µM [inhibitor, single point]
O=C1C(Cl)=C(Nc2ccc(F)cc2)C(=O)N1CCc1ccccc1 |  | inconclusive: 12.6 µM [activator, partial curve, poor fit]
COC(=O)c1sccc1NC(=O)Cc1ccc(OC)cc1 |  | active: 39.8 µM
CCC(CO)Nc1ncc([N+](=O)[O-])cc1C#N (stereo not given) | inactive: -1.46% | 
CCOc1ccc(NC(=O)CSc2nc3c(c(=O)n2C)SC(C)C3)cc1 (stereo not given) |  | inconclusive: 0.891 µM [inhibitor, single point]
Cc1sc2ncnc(NCCN3CCOCC3)c2c1C |  | active: 11.2 µM
O=C(NN=C1CCCCCC1)c1cc(-c2ccccc2)nc2ccccc12 | inactive: 0.691% | 
COc1cc(C(N)=O)cc(Br)c1OC |  | inconclusive: 10 µM [inhibitor, partial curve]
CCOC(=O)C(NC(=O)CC(C)C)(Nc1sc2c(c1C(N)=O)CCCC2)C(F)(F)F (stereo not given) |  | inconclusive: 11.2 µM [activator, single point]
Cc1sc2ncnc(N3CCN(CCOc4ccc(Cl)cc4)CC3)c2c1C |  | active: 2 µM

Reformatted as a markdown table: entries from further up.

| Compound | activity change, negative = inhibition | Potency |
| --- | --- | --- |
| c1ccc(CSCCc2ccncc2)cc1 |  | inconclusive: 35.5 µM [inhibitor, single point] |
| CCOC(=O)/C(=C\c1ccccc1)NC(=O)c1ccccc1 | inactive: 11.2% [at 9.22 µM] |  |
| CCN(CC)c1ccc(NC(=O)C2CC(=O)N(Cc3ccccc3)C2)cc1 (stereo not given) |  | inconclusive: 10 µM [inhibitor, single point] |
| Cc1nc2cc(NC(=O)NCCC3=CCCCC3)ccc2o1 |  | inconclusive: 35.5 µM [inhibitor, partial curve] |

Further compounds:

Compound | activity change, negative = inhibition | Potency
O=C(CCc1ccc(CCC(=O)c2cccs2)s1)c1cccs1 |  | inconclusive: 22.4 µM [inhibitor, single point]
CCN1CCN(c2nc(C)nc3c2sc(=S)n3C)CC1 | inactive: -2.97% | 
Cc1cccc(NC(=S)NN(Cc2ccccc2)c2ccccc2)c1C |  | inconclusive: 22.4 µM [inhibitor, single point]
Cc1ncc(N=Nc2ccccc2Cl)c(-c2ccccc2)n1 |  | inconclusive: 11.2 µM [activator, partial curve]
C/C(=N\Nc1ncc(Cl)cc1Cl)c1ccccn1 |  | inconclusive: 0.355 µM [inhibitor, full curve, poor fit]
CNC(=O)N(O)C1N(/N=C/c2cccnc2)C(=S)SC1(C)C (stereo not given) | inactive: 23.6% [at 9.22 µM] | 
O=C(NNC(=O)c1ccc2ccccc2c1O)c1ccccc1Cl |  | active: 31.6 µM
COc1ccc(-c2csc3nc(-c4cccnc4)nc(Cl)c23)cc1OC | inactive: 10.6% | 
O=C(NCc1ccccn1)c1ccc(=O)oc1 |  | active: 2.82 µM
O=C(c1csc2ccccc12)N1CCN(c2ccc(Cl)c(Cl)c2)CC1 |  | inconclusive: 10 µM [inhibitor, single point]
Cc1ccc(-c2cc(C(F)F)n3ncc(C(=O)N4CCN5CCCC5C4)c3n2)cc1 (stereo not given) | inactive: 12% | 
CS(=O)(=O)c1ccc2nc(NC(=O)Oc3ccccc3)sc2c1 | inactive: 3.72% | 
CCOC(=O)c1cc(-c2ccc3c(c2)OCCO3)nc2c1c(C)nn2CCC#N | inactive: -9.36% | 
CC1=CN2C(=N)/C(=C/c3ccco3)C(=O)N=C2S1 | inactive: 4.9% | 
CCOC(=O)C1=C(c2ccc(OC)cc2)C(=O)c2ccccc2C1=O |  | active: 11.2 µM
CCOC(=O)c1c(N)sc2c1CCSC2 | inactive: -5.24% [at 9.22 µM] | 
COc1ccc(-c2[nH]ncc2/C=N\NC(=O)c2ccc(C(C)(C)C)cc2)cc1OC |  | inconclusive: 0.562 µM [inhibitor, partial curve]
CCCNC(=O)COC(=O)c1ccccc1OCc1ccc(Cl)cc1 | inactive: -6.42% [at 9.22 µM] | 
Cc1nc(SCC(=O)N2CCN(c3ccccc3)CC2)c2oc3ccccc3c2n1 | inactive: -16.7% | 
COc1ccc2cc3c(N)nn(C(=O)C4CCC(C(C)(C)C)CC4)c3nc2c1 (stereo not given) |  | active: 10 µM
CN(C)c1ccc(/C=N/NC(=O)CN(c2ccccc2Cl)S(C)(=O)=O)cc1Br |  | inconclusive: 35.5 µM [inhibitor, single point]
CC1(CCc2ccccc2)NC(=O)N(Cc2nnc(-c3ccccc3Br)o2)C1=O (stereo not given) | inactive: 4.61% | 
O=c1[nH]c(-c2ccccn2)nc(C(F)(F)F)c1Br |  | inconclusive: 20 µM [inhibitor, partial curve, poor fit]
COc1ccc(N2CCN(C(CNC(=O)C(=O)NCCCn3ccnc3)c3cccnc3)CC2)cc1 (stereo not given) | inactive: -0.583% | 
O=C(Nc1ccc(F)cc1F)NC1CC1 | inactive: -5.77% | 

Compound | activity change, negative = inhibition | Potency
CCOc1ccc2nc(NC(=O)CSC3=NCCS3)sc2c1 |  | inconclusive: 3.16 µM [inhibitor, single point]
Clc1ccc(-c2n[nH]c3c2CCCC3)cc1 | inactive: -12.9% | 
Cc1ccc(-c2[nH]c3ccccc3c2C(C[N+](=O)[O-])c2ccco2)cc1 (stereo not given) |  | inconclusive: 35.5 µM [inhibitor, single point]
O=C(CCCCCN1C(=O)CCC1=O)Nc1ccc(Cl)c(C(F)(F)F)c1 |  | inconclusive: 35.5 µM [inhibitor, single point]
Cc1ccc(C(NC(=O)N2CCCCC2)=C(Cl)Cl)cc1F |  | inconclusive: 17.8 µM [activator, single point]
Cc1ccc(NC(=O)CC(O)(C(F)(F)F)C(F)(F)F)cc1 |  | inconclusive: 35.5 µM [inhibitor, single point]
N#CC1=C(SCc2ccccc2)NC(=O)CC1c1ccccc1 (stereo not given) |  | inconclusive: 0.0032 µM [inhibitor, full curve, poor fit]
O=C(Oc1ccc(Nc2ncnc3ccccc23)cc1)c1cccnc1 | inactive: -7.66% | 
Cc1nc(N2CCC(C(N)=O)CC2)c2c(-c3cccs3)csc2n1 |  | inconclusive: 25.1 µM [inhibitor, single point]
CC1(C)Cc2c(sc(NC(=O)c3ccc4ncsc4c3)c2C(N)=O)C(C)(C)N1 |  | inconclusive: 35.5 µM [inhibitor, single point]
O=C(NC1CC2CCCC(C1)N2S(=O)(=O)c1ccccc1)c1ccccc1 (stereo not given) |  | inconclusive: 35.5 µM [inhibitor, single point]
CCCCCCCOC(=O)C[N+](C)(C)CCOC1CC2CCC1(C)C2(C)C (stereo not given) |  | inconclusive: 35.5 µM [inhibitor, single point]
CCOc1ccc2c(c1)s/c(=N\S(=O)(=O)c1ccc(OC)cc1)n2C(F)F | inactive: -0.722% | 
NC(=O)COc1ccccc1C(=O)O |  | inconclusive: 1.58 µM [activator, partial curve]
O=C(CSc1nnc(-c2cccnc2)n1Cc1ccco1)c1ccccc1 | inactive: 26.8% | 
O=C(Nc1ccccc1N1CCN(C(=O)c2ccc(Cl)cc2)CC1)c1cc2ccccc2o1 | inactive: -27.8% | 
O=C(N/N=C/c1cccc([N+](=O)[O-])c1)C1COc2ccccc2O1 (stereo not given) | inactive: 3.31% | 
Cc1ccc(-n2ncc(C(=O)Nc3cc(Cl)ccc3C)c2C2CCNCC2)cc1C |  | inconclusive: 10 µM [inhibitor, single point]
Cn1cccc1/C=N/NC(N)=S |  | inconclusive: 3.16 µM [activator, full curve, poor fit]
CCOC(=O)C1CCN(C(=O)CN(c2cccc(OC)c2)S(=O)(=O)c2ccccc2)CC1 |  | inconclusive: 5.62 µM [activator, single point]
Cc1ccc(/C=C/C(=O)c2c(C)nc3ccccn23)cc1 |  | inconclusive: 10 µM [inhibitor, partial curve]
Cc1[nH]n2c(=O)cc(C(C)C)nc2c1-c1ccccc1 |  | inconclusive: 12.6 µM [inhibitor, single point]
O=C(CSc1nnnn1-c1ccc2c(c1)OCCO2)OC1CCCCC1 | inactive: -0.0789% | 
Cc1ccc2[nH]cc(CCCN3C(=O)c4ccccc4C3=O)c2c1 |  | inconclusive: 35.5 µM [activator, single point]
CCOCCCNC(=O)c1cc2sc(Cl)cc2n1CC |  | inconclusive: 0.794 µM [inhibitor, full curve, poor fit]
